Laboratory results reported in publication PMC9977449, “Discovery of lipid-mediated protein–protein interactions in living cells using metabolic labeling with photoactivatable clickable probes†” (Chemical Science, 2023).
Results are given in words; binding and its absence hold for the method and conditions named. In cells and extracts the contact can be indirect. Some entries that bind do so weakly or less than the wild type.

Biological target: T1, DDX46-TST, myristoylation-deficient G2A mutant (UniProt Q7L014)
T1 sequence: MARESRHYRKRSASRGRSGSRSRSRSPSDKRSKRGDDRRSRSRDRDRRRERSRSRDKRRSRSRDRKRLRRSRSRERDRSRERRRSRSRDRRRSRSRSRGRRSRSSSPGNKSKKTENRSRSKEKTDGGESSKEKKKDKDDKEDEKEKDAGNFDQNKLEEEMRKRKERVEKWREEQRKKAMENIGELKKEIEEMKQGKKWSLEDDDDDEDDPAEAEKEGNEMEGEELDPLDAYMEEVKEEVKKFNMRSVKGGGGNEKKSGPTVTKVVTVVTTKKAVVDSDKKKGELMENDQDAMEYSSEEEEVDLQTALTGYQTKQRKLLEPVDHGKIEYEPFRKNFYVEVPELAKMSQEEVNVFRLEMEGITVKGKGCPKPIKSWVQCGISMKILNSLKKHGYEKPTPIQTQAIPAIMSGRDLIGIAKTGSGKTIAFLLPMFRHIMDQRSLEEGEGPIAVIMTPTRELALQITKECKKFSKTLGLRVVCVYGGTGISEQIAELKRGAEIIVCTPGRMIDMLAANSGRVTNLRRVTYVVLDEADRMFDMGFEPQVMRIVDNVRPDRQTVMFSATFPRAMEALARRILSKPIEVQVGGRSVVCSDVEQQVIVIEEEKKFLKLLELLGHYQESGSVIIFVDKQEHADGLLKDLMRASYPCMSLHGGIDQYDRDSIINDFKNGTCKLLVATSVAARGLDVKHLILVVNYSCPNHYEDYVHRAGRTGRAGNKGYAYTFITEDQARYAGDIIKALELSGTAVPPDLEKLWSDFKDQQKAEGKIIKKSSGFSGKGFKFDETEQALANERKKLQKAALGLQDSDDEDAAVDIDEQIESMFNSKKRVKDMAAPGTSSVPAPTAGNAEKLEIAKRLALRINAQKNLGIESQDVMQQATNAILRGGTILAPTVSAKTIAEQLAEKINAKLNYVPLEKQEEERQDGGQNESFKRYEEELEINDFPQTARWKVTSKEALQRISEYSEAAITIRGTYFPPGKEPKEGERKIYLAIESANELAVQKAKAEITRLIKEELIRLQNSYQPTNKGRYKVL
Assay: co-IP; TST-tagged protein (WT or G2A) transfected in HEK293 cells, captured on Strep-Tactin resin; blot with TRA2B or TOMM40 antibody, signal normalised to the bait's signal

binding: binds
B1: TRA2B, RNA-binding protein involved in control of pre-mRNA splicing (protein, UniProt P62995 1-288)
chain: MSDSGEQNYGERESRSASRSGSAHGSGKSARHTPARSRSKEDSRRSRSKSRSRSESRSRSRRSSRRHYTRSRSRSRSHRRSRSRSYSRDYRRRHSHSHSPMSTRRRHVGNRANPDPNCCLGVFGLSLYTTERDLREVFSKYGPIADVSIVYDQQSRRSRGFAFVYFENVDDAKEAKERANGMELDGRRIRVDFSITKRPHTPTPGIYMGRPTYGSSRRRDYYDRGYDRGYDDRDYYSRSYRGGGGGGGGWRAAQDRDQIYRRRSPSPYYSRGGYRSRSRSRSYSPRRY
